Experimental findings from article PMC12713027 are described below.

The exact form of at least one protein or probe is not confirmed.

This data set has as its target His-Avrxa27CRR (AvrXa27 central repeat region) (UniProt A0A0K0GNW2). Description: EMSA. The note with it: recombinant protein; protein details: His; label: 5'-Cy5 on both strands.

As to “TAGTTCTGAAAATAAGTC (double strand) [EBE1 probe]”, the binding result is “binds”.

Regarding “TAATGCTAAAAAAACCTT (double strand) [EBE3 probe]”, the binding result was “binds”.

On to “TAATTAAATTCAACCTAT (double strand) [EBE2 probe]”, for which the binding result was “binds”.

In the case of “TCATTGACCTGATCCAAC (double strand) [EBE4 probe]”, the binding result is reported as “binds”.
